Laboratory results reported in PubChem BioAssay AID1347076 (National Center for Advancing Translational Sciences (NCATS), 2019).
Screen size: about 400,000 compounds; about 13,000 (3.2%) were called active. Inconclusive results, whose numbers are uncertain, are shown with a selection of clear calls. Calls come from the whole dose curve; as a rule, active = well fitted cell-killing curve with a large enough effect; inconclusive = small, poorly fitted or top-dose-only effect, or effect the other way; inactive = flat fitted curve, though single readings scatter. A potency beside an inconclusive call is a rough fit, not a confirmed value.

Experiment: qHTS assay for MDR1-selective chemotherapeutics: Primary screen using the drug-selected MDR subline cells KB-V1; note: nearly all actives have a fitted effect of over 60% in size
Conditions: KB-V1 MDR cells viability, CellTiter-Glo, 72 h; activity change, negative = cytotoxicity: at 46.1 µM (top of the series)
How it was run: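 Compound-treated KB-V1 multidrug-resistant cells, 72 h, 37 degrees C; viability by CellTiter-Glo. Fitted qHTS curves give the values.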
% is set by controls: 0 for no effect and ±100 for the full control effect; potency is the fitted concentration of half-maximal effect.

Row | SMILES | Potency | activity change, negative = cytotoxicity
1 | Cc1cccc(NC(=O)c2ccc(C3SCC(=O)N3CCc3ccccc3)cc2)c1 (stereo not given) | inconclusive: 14.6 µM [cytotoxic, partial curve] | 
2 | CCNc1nc(NCC)n2c(SC(C(=O)Nc3cc(C)ccc3C)c3ccccc3)nnc2n1 (stereo not given) | inconclusive: 0.0052 µM [cytotoxic, full curve, poor fit] | 
3 | Cn1nc(C(=O)OCC(=O)c2ccc(Cl)cc2)c2ccccc2c1=O |  | inactive: 22.5%
4 | C=CCn1c(Sc2ccccc2)nc2c1c(=O)[nH]c(=O)n2C | active: 2.31 µM | 
5 | CCCCCCCCN1C(=O)[C@H](CC(=O)NCc2ccccc2)C[C@@]2(C(=O)OCC)CCC=C12 | inconclusive: 20.6 µM [cytotoxic, partial curve, poor fit] | 
6 | COc1ccccc1OCC(=O)NNc1c2ccccc2nc2ccccc12 | inconclusive: 6.51 µM [cytotoxic, full curve] | 
7 | Cc1ccccc1C(=O)Nc1ccc(S(=O)(=O)NCC2CCCO2)cc1 (stereo not given) | inconclusive: 10.3 µM [cytotoxic, partial curve] | 
8 | O=C(Nc1ccc2c(c1)CCCN2C(=O)c1cccs1)c1c(F)cccc1Cl |  | inactive: -20%
9 | O=C(CN(c1ccc(Cl)c(C(F)(F)F)c1)S(=O)(=O)c1ccccc1)N1CCOCC1 |  | inactive: -6.49%
10 | COc1ccc(-c2csc(Nc3cccc(C)n3)n2)cc1OC | inconclusive: 20.6 µM [cytotoxic, single point] | 
11 | CCCCNC(=S)Nc1ccccc1Cc1ccccc1 | inconclusive: 23.1 µM [cytotoxic, single point] | 
12 | CC(=O)Nc1ccc(NC(=O)C(C)c2cccc(C(=O)c3ccccc3)c2)cc1 (stereo not given) |  | inactive: 0%
13 | Cc1ccccc1NC(=O)COc1coc(CN2CCCc3ccccc32)cc1=O | inconclusive: 25.9 µM [cytotoxic, single point] | 
14 | CCC(C)c1ccc(NC(=O)C2CCN(c3ncccn3)CC2)cc1 (stereo not given) | active: 18.4 µM | 
15 | COc1ccc(CNC(=O)C(=O)NC2CCC(C)CC2)cc1 (stereo not given) | inconclusive: 23.1 µM [rising, single point] | 
16 | CCc1nnc(NC(=O)C2CCCN(c3nc4ccccc4s3)C2)s1 (stereo not given) | active: 14.6 µM | 
17 | CCOC(=O)N1CCN(C(=O)C[C@@H]2C[C@@]3(C(=O)OCC)CCC=C3N(Cc3ccc(Cl)cc3Cl)C2=O)CC1 | active: 10.3 µM | 
18 | COc1ccc(C(=O)CN2C(=O)NC3(CCCCCC3)C2=O)cc1 | inconclusive: 20.6 µM [cytotoxic, single point] | 
19 | CCC(CC)c1nnc(NC(=O)Oc2ccccc2)s1 |  | inactive: -20.6%
20 | COc1cc(Br)cc(C2C3=C(CCCC3=O)N(c3ccc(F)cc3)C3=C2C(=O)CCC3)c1O | inconclusive: 32.6 µM [cytotoxic, single point] | 

Another view of 2 compounds above.
CCNc1nc(NCC)n2c(SC(C(=O)Nc3cc(C)ccc3C)c3ccccc3)nnc2n1 (stereo not given)
  Potency: inconclusive: 0.0052 µM [cytotoxic, full curve, poor fit]
CCC(CC)c1nnc(NC(=O)Oc2ccccc2)s1
  activity change, negative = cytotoxicity: inactive: -20.6%
